Literature values as cited in paper PMC9369311, “Examination of Intracellular GPCR-Mediated Signaling with High Temporal Resolution” (International Journal of Molecular Sciences, 2022).

Conditions: previous study; cited from earlier work

Compound | photochemical quantum yield
O=C(O)CN(CC(=O)O)Cc1c(O)c(Br)cc2c(COC(=O)NCC(O)c3ccc(O)cc3)cc(=O)oc12 (centres unmarked) [BBHCMOC-octopamine] | 0.11
CCN(CC)c1ccc2c(COP3(=O)OC[C@H]4O[C@@H](n5cnc6c(N)ncnc65)[C@H](O)[C@@H]4O3)cc(=O)oc2c1 (some centres unmarked) [DEACM-cAMP] | 0.21
